Source: paper PMC5386688
Results are given in words; binding and its absence hold for the method and conditions named. Binding seen in cells or lysates may run through a third protein. Some results given as binding are weak or reduced against the parent protein; the word gives no strength. For part of these data: Where a sequence is shown, tags or fusion partners need not be part of it. Values belong to the molecule of their own block, whether it stands above or below them.

The chains behind the UniProt entries cited, without tags or fusion partners.
UniProt P10415: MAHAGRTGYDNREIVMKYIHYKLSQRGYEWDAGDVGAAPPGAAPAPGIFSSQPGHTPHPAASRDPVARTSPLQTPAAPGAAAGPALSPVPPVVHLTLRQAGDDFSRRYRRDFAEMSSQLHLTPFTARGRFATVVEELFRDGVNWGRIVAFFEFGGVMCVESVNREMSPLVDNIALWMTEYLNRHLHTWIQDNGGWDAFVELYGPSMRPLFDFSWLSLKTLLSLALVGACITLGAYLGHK

Key:
[1] = target: T1, Heterogeneous nuclear protein L (HnRNP-L), endogenous in PC3 cells (human (endogenous in PC3)) (UniProt P14866); assay: co-IP; PC3 cell lysate; anti-HnRNP L (Abcam, ab6106), anti-bcl-2 or IgG antibody at 4°C overnight, protein A/G beads; western blot; reciprocal; IgG group as negative control
T1 sequence: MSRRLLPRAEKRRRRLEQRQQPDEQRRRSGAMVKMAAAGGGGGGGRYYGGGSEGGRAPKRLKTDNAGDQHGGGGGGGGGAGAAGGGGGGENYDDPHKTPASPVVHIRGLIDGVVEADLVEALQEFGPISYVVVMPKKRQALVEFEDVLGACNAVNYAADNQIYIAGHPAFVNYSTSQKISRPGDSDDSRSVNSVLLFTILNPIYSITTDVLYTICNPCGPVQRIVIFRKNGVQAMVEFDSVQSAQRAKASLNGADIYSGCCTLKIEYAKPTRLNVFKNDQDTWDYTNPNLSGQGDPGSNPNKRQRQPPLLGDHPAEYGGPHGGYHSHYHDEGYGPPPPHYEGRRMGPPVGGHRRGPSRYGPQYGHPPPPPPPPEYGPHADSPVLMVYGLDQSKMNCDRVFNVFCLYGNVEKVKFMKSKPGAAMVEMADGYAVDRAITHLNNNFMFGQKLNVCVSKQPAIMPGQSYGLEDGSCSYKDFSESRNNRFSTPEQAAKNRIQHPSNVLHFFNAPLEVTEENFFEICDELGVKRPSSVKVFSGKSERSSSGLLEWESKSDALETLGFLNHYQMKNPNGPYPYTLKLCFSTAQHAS

[2] = target: BCL-2, endogenous in PC3 cells (human (endogenous in PC3)) (UniProt P10415); assay: as above
GST-tagged BCL-2 = GST-tagged BCL-2 (UniProt P10415); assay: pull-down; lysates of bacteria expressing His-tagged HnRNP-L or GST-tagged BCL-2; tag beads added to one lysate for 8 hours at 4°C, then equal volume of the other lysate overnight at 4°C; beads washed with ice-cold PBS four times; western blot; input and tag-purification groups as controls

binding [1]: binds
Molecule: BCL-2, endogenous in PC3 cells (from UniProt P10415 1-239)

binding [2]: binds
B1: Heterogeneous nuclear protein L (HnRNP-L), endogenous in PC3 cells (protein, UniProt P14866 1-589)
chain: MSRRLLPRAEKRRRRLEQRQQPDEQRRRSGAMVKMAAAGGGGGGGRYYGGGSEGGRAPKRLKTDNAGDQHGGGGGGGGGAGAAGGGGGGENYDDPHKTPASPVVHIRGLIDGVVEADLVEALQEFGPISYVVVMPKKRQALVEFEDVLGACNAVNYAADNQIYIAGHPAFVNYSTSQKISRPGDSDDSRSVNSVLLFTILNPIYSITTDVLYTICNPCGPVQRIVIFRKNGVQAMVEFDSVQSAQRAKASLNGADIYSGCCTLKIEYAKPTRLNVFKNDQDTWDYTNPNLSGQGDPGSNPNKRQRQPPLLGDHPAEYGGPHGGYHSHYHDEGYGPPPPHYEGRRMGPPVGGHRRGPSRYGPQYGHPPPPPPPPEYGPHADSPVLMVYGLDQSKMNCDRVFNVFCLYGNVEKVKFMKSKPGAAMVEMADGYAVDRAITHLNNNFMFGQKLNVCVSKQPAIMPGQSYGLEDGSCSYKDFSESRNNRFSTPEQAAKNRIQHPSNVLHFFNAPLEVTEENFFEICDELGVKRPSSVKVFSGKSERSSSGLLEWESKSDALETLGFLNHYQMKNPNGPYPYTLKLCFSTAQHAS

binding (GST-tagged BCL-2): binds
B2: His-tagged HnRNP-L (protein, UniProt P14866 1-589)
chain: MSRRLLPRAEKRRRRLEQRQQPDEQRRRSGAMVKMAAAGGGGGGGRYYGGGSEGGRAPKRLKTDNAGDQHGGGGGGGGGAGAAGGGGGGENYDDPHKTPASPVVHIRGLIDGVVEADLVEALQEFGPISYVVVMPKKRQALVEFEDVLGACNAVNYAADNQIYIAGHPAFVNYSTSQKISRPGDSDDSRSVNSVLLFTILNPIYSITTDVLYTICNPCGPVQRIVIFRKNGVQAMVEFDSVQSAQRAKASLNGADIYSGCCTLKIEYAKPTRLNVFKNDQDTWDYTNPNLSGQGDPGSNPNKRQRQPPLLGDHPAEYGGPHGGYHSHYHDEGYGPPPPHYEGRRMGPPVGGHRRGPSRYGPQYGHPPPPPPPPEYGPHADSPVLMVYGLDQSKMNCDRVFNVFCLYGNVEKVKFMKSKPGAAMVEMADGYAVDRAITHLNNNFMFGQKLNVCVSKQPAIMPGQSYGLEDGSCSYKDFSESRNNRFSTPEQAAKNRIQHPSNVLHFFNAPLEVTEENFFEICDELGVKRPSSVKVFSGKSERSSSGLLEWESKSDALETLGFLNHYQMKNPNGPYPYTLKLCFSTAQHAS
